Source: patent publication US20220348674A1
These are yes or no findings as the source states them, for the method shown. Some results given as binding are weak or reduced against the parent protein; the word gives no strength.

Protein sequences, listed by entry. Tags and fused reporters are not part of them. Lines headed by an entry give the natural chain unless they say otherwise; changes in a name come on top. Residues count along the entry.
UniProt P25942: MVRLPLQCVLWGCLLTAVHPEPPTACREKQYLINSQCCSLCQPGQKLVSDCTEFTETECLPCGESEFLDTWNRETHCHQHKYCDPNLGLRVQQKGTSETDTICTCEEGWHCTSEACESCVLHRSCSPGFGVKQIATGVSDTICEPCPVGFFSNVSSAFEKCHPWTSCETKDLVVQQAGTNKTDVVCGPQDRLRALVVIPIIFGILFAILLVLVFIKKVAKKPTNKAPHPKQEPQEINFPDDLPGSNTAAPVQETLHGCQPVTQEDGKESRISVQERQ
cell surface human CD40 on HEK-CD40 cells: residues 21-277 of P25942
purified recombinant human CD40 protein: residues 21-193 of P25942

How the values were obtained:
[1] = biological target: cell surface human CD40 on HEK-CD40 cells (human) (UniProt P25942); test: flow cytometry on HEK-CD40 cells (legend of FIG. 2)
[2] = biological target: cell surface human CD40 on HEK-CD40 cells (human) (UniProt P25942); test: flow cytometry on HEK-CD40 cells
[3] = biological target: purified recombinant human CD40 protein (human) (UniProt P25942); test: Octet (BLI), recombinant CD40

Measured: binding

B1: 3B5, humanized anti-CD40 mAb, IgG1 isotype (antibody, V domains shown)
VH: EVQLVESGGGLIQPGGSLRLSCAVSGFSLSTYAVSWVRQAPGKGLEWVGIIDSGGGTAYASWVKGRFTISRDNSKNTLYLQMNSLRAEDTAVYYCARGVTFFGLWGQGTLVTVSS
VL: DIVMTQSPSTLSASVGDRVTITCQASQSISNYLSWYQQKPGKAPKLLIYRASDLASGVPSRFSGSGSGTEFTLTISSLQPDDFATYYCQAYYYSGGGSYDYAFGGGTKVEIK
binds: all assays above
